Some of the results follow. Repeats are few or missing, and single values can be far off.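 Imaging used 1,536-well plates; nuclei positive for cleaved PARP by antibody were divided by total DNA-stained nuclei to yield the apoptosis fraction. Doses for screening kept most cells viable, and cell lines differ markedly in resting and induced cleaved-PARP levels.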
These compounds were tested on WM1716 (assay: cleaved PARP positive nuclei fraction relative to DMSO control; melanoma cells; higher = more apoptosis). Conditions: library dose: low library concentration; 72 h.

Compared with `CN(c1ncccc1CNc1nc(Nc2ccc3c(c2)CC(=O)N3)ncc1C(F)(F)F)S(C)(=O)=O` + O=C(O)c1ccc(-c2c[nH]c3ncc(-c4ccccc4)cc23)cc1C1CCCC1 [GSK650394] (first compound 0.08 µM, partner dose 0.16 µM), `NC1(c2ccc(-c3nc4ccn5c(=O)[nH]nc5c4cc3-c3ccccc3)cc2)CCC1` + CCCCCCCCCCCC1=C(O)C(=O)C=C(O)C1=O [Embelin] (first compound 0.4 µM, partner dose 1.2 µM) is lower in “cleaved PARP positive nuclei fraction” value: 108% for the first, 48% for the second.

First: NC(=O)c1ccc(N(C(N)=O)c2c(F)cccc2F)nc1-c1ccc(F)cc1F + COc1ccc(-c2ccc3c(N4CCOCC4)nc(N4C[C@@H](C)O[C@@H](C)C4)nc3n2)cc1CO [KU0063794] (first compound 0.4 µM, partner dose 0.02 µM)
Second: COc1ccc(C2=N[C@@H](c3ccc(Cl)cc3)[C@@H](c3ccc(Cl)cc3)N2C(=O)N2CCNC(=O)C2)c(OC(C)C)c1 [Nutlin-3] + Cn1cncc1[C@@](N)(c1ccc(Cl)cc1)c1ccc2c(c1)c(-c1cccc(Cl)c1)cc(=O)n2C [tipifarnib] (first compound 0.1 µM, partner dose 0.01 µM)
The “cleaved PARP positive nuclei fraction” value of the first is lower: 50.6% for the first, 67.7% for the second.

Compared with `NC(=O)c1ccc(N(C(N)=O)c2c(F)cccc2F)nc1-c1ccc(F)cc1F` + CC1(C)NC(=O)N(c2ccc([N+](=O)[O-])c(C(F)(F)F)c2)C1=O [nilutamide] (first compound 0.4 µM, partner dose 1 µM), `C[C@@H](N)c1ccc(C(=O)Nc2ccnc3[nH]ccc23)cc1` + Cc1cc(N2CCOCC2)cc2[nH]c(-c3c(NC[C@@H](O)c4cccc(Cl)c4)cc[nH]c3=O)nc12 [BMS536924] (first compound 0.4 µM, partner dose 0.2 µM) is higher in “cleaved PARP positive nuclei fraction” value: 123% for the first, 151% for the second.

First: CN(c1ncccc1CNc1nc(Nc2ccc3c(c2)CC(=O)N3)ncc1C(F)(F)F)S(C)(=O)=O + Cc1cc([N+](=O)[O-])ccc1NS(=O)(=O)c1cc(Cl)ccc1Cl [FH535] (first compound 0.08 µM, partner dose 1 µM)
Second: NC(=O)c1ccc(N(C(N)=O)c2c(F)cccc2F)nc1-c1ccc(F)cc1F + O=C(O)c1ccc(-c2c[nH]c3ncc(-c4ccccc4)cc23)cc1C1CCCC1 [GSK650394] (first compound 0.4 µM, partner dose 0.16 µM)
The “cleaved PARP positive nuclei fraction” value of the first is higher: 401% for the first, 35.7% for the second.

First: CC(=O)O[C@@]12CO[C@@H]1C[C@H](O)[C@@]1(C)C(=O)[C@H](O)C3=C(C)[C@@H](OC(=O)[C@H](O)[C@@H](NC(=O)OC(C)(C)C)c4ccccc4)C[C@@](O)([C@@H](OC(=O)c4ccccc4)[C@H]21)C3(C)C [Docetaxel] + N#Cc1c(O)c2c(-c3ccc(-c4ccccc4O)cc3)csc2[nH]c1=O [A769662] (first compound 0.0001 µM, partner dose 2 µM)
Second: CN(c1ncccc1CNc1nc(Nc2ccc3c(c2)CC(=O)N3)ncc1C(F)(F)F)S(C)(=O)=O + COc1cc(N2CCC(N3CCN(C)CC3)CC2)ccc1Nc1ncc(Cl)c(Nc2ccccc2S(=O)(=O)C(C)C)n1 [NVP-TAE684] (first compound 0.08 µM, partner dose 0.08 µM)
The “cleaved PARP positive nuclei fraction” value of the first is higher: 246% for the first, 70.4% for the second.

In the case of `CC(=O)O[C@@]12CO[C@@H]1C[C@H](O)[C@@]1(C)C(=O)[C@H](O)C3=C(C)[C@@H](OC(=O)[C@H](O)[C@@H](NC(=O)OC(C)(C)C)c4ccccc4)C[C@@](O)([C@@H](OC(=O)c4ccccc4)[C@H]21)C3(C)C` [Docetaxel] + COc1ccc2c(c1)CCC1C2CCC2(C)C(NCCCCCCN3C(=O)C=CC3=O)CCC12 [U73122] (first compound 0.0001 µM, partner dose 0.4 µM), the “cleaved PARP positive nuclei fraction” value is reported as 319%.
With `CC(=O)O[C@@]12CO[C@@H]1C[C@H](O)[C@@]1(C)C(=O)[C@H](O)C3=C(C)[C@@H](OC(=O)[C@H](O)[C@@H](NC(=O)OC(C)(C)C)c4ccccc4)C[C@@](O)([C@@H](OC(=O)c4ccccc4)[C@H]21)C3(C)C` [Docetaxel] + COc1ccc(-c2ccc3c(N4CCOCC4)nc(N4C[C@@H](C)O[C@@H](C)C4)nc3n2)cc1CO [KU0063794] (first compound 0.0001 µM, partner dose 0.02 µM) the “cleaved PARP positive nuclei fraction” value was 1060%.

— the supplement of paper PMC4604168 (melanoma cell lines)
